The assay is described as follows: IkB Signaling. Conditions: ABC-DLBCL IkBa-CBG/CBR dual luciferase ratio (green luciferase fused to IkBa over red control in OCI-Ly3 lymphoma cells), 4 h. An excerpt:
NIH Molecular Libraries Screening Centers Network [MLSCN]
NIH Chemical Genomics Center [NCGC]
Nuclear factor kappa-B (NF-kappa-B) plays an important role in normal B cell development and survival. Diffuse large B cell lymphoma (DLBCL) is the most commonly observed type of non-Hodgkin's lymphoma. Gene expression analysis has identified an activated B cell-like subtype of DLBCL (ABC-DLBCL) which expresses known NF-kappa-B target genes. […] However, targets upstream of IKK have been largely unexplored and so nodes upstream of IKK in the NF-kappa-B pathway remain untested due to the lack of chemical probes.
A cell-sensor assay for I-kappa-B-alpha stabilization was developed with NIH investigator Dr. R. Eric Davis in Dr. Louis M. Staudt's laboratory. The assay uses green (CBG68) and red (CBR) emitting beetle luciferases [Chroma-Glo(TM) developed by Promega Corp.] where the green luciferase is fused to I-kappa-B-alpha and the red luciferase is present in its native state. Both luciferase genes are stably present in the OCI-Ly3 human ABC DLBCL cell line, but their expression is under the control of tetracycline-inducible promoters. Following the addition of doxycycline to induce expression of the luciferases, the green luminescence in control cultures rises only slowly because the CBG fusion partner I-kappa-B-alpha is targeted by IKK activity for rapid degradation. In contrast, green luminescence rises rapidly in the presence of proteasome inhibitors or IKK inhibitors. The rise in red luminescence of CBR is not affected by proteasome or IKK inhibitors, and serves as normalization for cell number and nonspecific effects. Compounds were screened as a concentration-titration series that ranged from 57 uM to 0.7 nM.
NCGC Assay Protocol Summary:
Cells were seeded in 1536-well plates at 5000 cells/3ul in IMDM medium containing 0.5% FBS, w/o phenol red, L-glutamine, 25 mM HEPES, 3 mg/ml sodium bicarbonate. After centrifugation for 1 min. at 1000 rpm, 23 nl of compounds or DMSO were delivered to each well using a pin tool. Then 1ul 80ng/ml doxycycline was dispensed into white solid 1536-well plates and the plates were incubated at 37C/5% C02 in a cell incubator for 4 hrs. Then 4 ul Chroma-Glo luminescent substrate mix (Promega) was added to each well. The plate was incubated at R.T. for 10-15 min. The plates were measured on a ViewLux plate reader for green luminescence (540/20 nm filter) and red luminescence (618/8 nm filter). The green and red luminescent signals were corrected for red and green luminescence filter overlap using previously determined filter calibration constants (determined using the procedure outlined in the Promega Technical Manual). The %Activity was determined from the ratio of corrected green/red luminescent values. Green luminescent and ratio %Activity was determined by normalizing to the difference in signal between basal cells (0% Activity) and cells incubated with 10 uM of the proteasome inhibitor MG-132 (100% Activity). Red luminescent %Activity was normalized to the difference between red luminesence in basal cells (0%Activity) and zero luminescence (-100% Activity).
Concentration-response curves were fitted to the signals arising from the green luminescence (I-kappa-B-alpha-luciferase fusion; IkB-luc) and the red luminescence (unfused luciferase; luc) as well as the calculated ratio. The concentration-effect curves were then classified based on curve quality (r2), response magnitude and degree of measured activity. Compounds were then categorized based on their concentration-response curves for all three datasets (Ikb-luc, luc and ratio).
Keywords: IKK, I-kappa-B, IkB, IkBa, cytotoxicity, luminescence, MLSMR, MLSCN, NIH Roadmap, qHTS, NCGC

The mark [1] stands for this setting: measured here: IkB-luc green channel.
Setting [2] is: measured here: control luc red channel.

This is one part of the list. The main result of the screen is listed elsewhere. These columns were measured beside it and carry no call. Compounds called inactive in the main read-out are mostly missing here. Words in brackets tell the shape of the fitted curve; partial curves, single points and poor fits give uncertain potencies.

For orientation: AC50 means the concentration giving half of the maximal activity seen. Regarding `O=[As](O)(O)c1ccc(Cc2ccc([As](=O)(O)O)cc2)cc1`, the half-maximal activity concentration (AC50) under setting [1] is 1.58 µM [rising, single point] and the AC50 under setting [2] is 3.98 µM [falling, partial curve]. As for `Oc1cc(Cl)c(Cl)c(Cl)c1`, the AC50 under setting [2] was 7.94 µM [falling, full curve]. Take `C[C@@]12CC[C@H](O)C[C@@H]1CC[C@H]1[C@H]2C[C@@H](O)[C@]2(C)[C@@H](C3=CC(=O)OC3)CC[C@@]12O`: the AC50 under setting [2] is 3.16 µM [falling, partial curve].

As to `COc1ccc(-n2c(/C=C/c3cccc(F)c3)nc3ccccc3c2=O)cc1Cl`, the AC50 under setting [2] was 25.1 µM [falling, partial curve].

In the case of `Cc1cccc(CN2C(=O)CN=C(c3ccccc3)c3ccccc32)c1`, the concentration at half-maximal activity (AC50) under setting [2] is 3.98 µM [falling, partial curve]. For the compound `CCCCCCn1c(N)c(C(=O)NCCN2CCOCC2)c2nc3ccccc3nc21`, under setting [2], the AC50 was 31.6 µM [falling, single point]. For `Cn1ncnc2c(=O)n(C)c(=O)nc1-2`, the AC50 was 20 µM [rising, single point] under setting [1] and 1.26 µM [falling, full curve] under setting [2]. On to `CN(C)C1(c2nnnn2CCOC(=O)Nc2ccc(Cl)cc2)CCCCC1`, for which, under setting [2], the half-maximal activity concentration (AC50) is 15.8 µM [falling, partial curve].

With `CC(=O)[O-].CC(=O)[O-].O.O.[Cd+2]`, under setting [1], the AC50 is 3.16 µM [rising, partial curve]. For `COc1cccc(C2SCC(=O)Nc3c2c(C)nn3-c2ccc(C)c(Cl)c2)c1OC` (stereo not drawn), under setting [2], the AC50 was 25.1 µM [falling, single point]. Still for that read-out and setting: the result for `C[C@H]1CCC[C@H](O)CCCCCc2cc(O)cc(O)c2C(=O)O1` reads 15.8 µM [falling, partial curve].

On to `O=C(c1ccccc1)[C@H]1[C@H](c2ccccc2[N+](=O)[O-])N1C1CCCCC1` (stereo partly drawn), for which, under setting [1], the AC50 was 5.01 µM [rising, partial curve]. As to `Oc1ccc2c3c1O[C@H]1c4c(c5ccccc5n4Cc4ccccc4)C[C@]4(O)[C@H](C2)N(CC2CC2)CC[C@@]314`, the AC50 under setting [2] was 39.8 µM [falling, partial curve].

On to `N#CC1=C(N)Oc2c(c(=O)oc3ccccc23)C1c1cccnc1` (stereo not drawn), for which the AC50 under setting [2] is 7.94 µM [falling, partial curve]. `O=c1c2ccccc2nc(/C=C/c2ccccc2F)n1-c1cccc(O)c1`: the AC50 under setting [2] is 5.01 µM [falling, single point]. In the case of `Cc1cccc(-c2nn3c(=O)cc(CN4CCN(C(=O)COc5ccc(Cl)cc5)CC4)nc3s2)c1`, under setting [2], the AC50 was 20 µM [falling, partial curve, poor fit]. Turning to `O=S1(=O)N(Cc2ccccc2Cl)CCCN1Cc1ccccc1Cl`, the concentration at half-maximal activity (AC50) under setting [2] was 15.8 µM [falling, partial curve]. On the same count and under the same terms, the result for `COc1ccc(NC(=O)CCc2nc(C3=CCN(Cc4cccc(Cl)c4)CC3)no2)c(OC)c1` reads 39.8 µM [falling, single point]; that for `C[C@H]1CCCC=CC2C[C@H](O)C[C@@H]2[C@H](O)/C=C\C(=O)O1` (stereo partly drawn), 0.0251 µM [falling, full curve]. The same measure, in the same setting: next, `Cc1ccccc1OCC(=O)N1CCN(CCc2ccccn2)CC1`: 5.01 µM [falling, partial curve]. On to `CC(C)CC(C)Nc1ccc(Nc2ccccc2)cc1` (stereo not drawn), for which the half-maximal activity concentration (AC50) under setting [2] was 31.6 µM [falling, partial curve, poor fit].

Regarding `CN(C)c1ccc(N=Nc2ccccc2)cc1`, the AC50 under setting [2] was 12.6 µM [falling, partial curve]. On the same count and under the same terms, next, `Cc1ccccc1-n1c(/C=C/c2c(C)[nH]c3ccccc23)nc2ccccc2c1=O`: 7.94 µM [falling, partial curve]. Regarding `NC[C@@H](CC(=O)O)c1ccc(Cl)cc1`, the AC50 under setting [1] is 2 µM [rising, full curve]. On to `COc1ccc(OCC(=O)N2CCN(CCc3ccncc3)CC2)cc1`, for which the AC50 under setting [2] was 0.1 µM [falling, full curve, poor fit]. Regarding `CC(C)(c1ccc(OCC2CO2)cc1)c1ccc(OCC2CO2)cc1` (stereo not drawn), the half-maximal activity concentration (AC50) under setting [1] was 31.6 µM [rising, partial curve] and the AC50 under setting [2] is 12.6 µM [falling, partial curve]. Take `CC[C@@](O)(C(=O)O)c1cc2n(c(=O)c1CO)Cc1cc3ccccc3nc1-2`: under setting [2], the AC50 is 3.16 µM [falling, single point]. As for `CN1CCN(c2ccc([N+](=O)[O-])c3[nH]o[n+](=O)c23)CC1`, the AC50 under setting [2] was 6.31 µM [falling, single point]. `Cc1c(C(c2ccc(Br)cc2)c2c(O)c3ccccc3oc2=O)c(=O)n(-c2ccccc2)n1C` (stereo not drawn): the half-maximal activity concentration (AC50) under setting [2] is 7.94 µM [falling, partial curve]. As to `C=C(C)CN1CC[C@@]23c4c5ccc(O)c4O[C@H]2c2[nH]c4ccccc4c2C[C@]3(O)[C@@H]1C5`, under setting [2], the AC50 is 39.8 µM [falling, single point]. Consider `CC(=O)c1ccccc1NC(=O)C1C2CCC(O2)C1C(=O)O` (stereo not drawn), for which the AC50 under setting [1] is 25.1 µM [rising, single point]. Regarding `Fc1ccc(C(OCCN2CCN(CCCc3ccccc3)CC2)c2ccc(F)cc2)cc1`, under setting [2], the AC50 was 39.8 µM [falling, partial curve]. Turning to `CN1CCC(O)(c2ccccc2)C(C(=O)c2ccccc2)C1` (stereo not drawn), the AC50 under setting [2] was 31.6 µM [falling, partial curve]. As to `C=C(C)[C@H]1Cc2c(ccc3c2O[C@@H]2COc4cc(OC)c(OC)cc4[C@@H]2C3=O)O1`, under setting [1], the AC50 was 3.98 µM [rising, partial curve]. With `NNC(=O)c1ccc(O)cc1`, the AC50 under setting [2] is 0.794 µM [falling, full curve]. As for `CCCC12CN3CC(C)(CN(C1)C3c1c(C)[nH]c(=O)[nH]c1=O)C2=O` (stereo not drawn), the AC50 under setting [2] was 3.16 µM [rising, single point]. Consider `Cc1ccc(-c2nn3c(=O)cc(CN4CCN(C(=O)COc5ccc(C)c(C)c5)CC4)nc3s2)cc1`, for which the AC50 under setting [2] is 39.8 µM [falling, single point]. As to `CCOc1cc2[nH]c(=S)n(CCCC(=O)N3CCC4(CC3)OCCO4)c(=O)c2cc1OCC`, under setting [2], the AC50 was 5.01 µM [falling, partial curve]. On to `CCCC1=Nc2cc(C(=O)NCCCN(CC)CC)ccc2Sc2ccccc21`, for which the AC50 under setting [2] was 31.6 µM [falling, single point]. Take `COc1ccc(Br)cc1C1SCC(=O)Nc2c1c(C)nn2-c1ccccc1C` (stereo not drawn): the AC50 under setting [2] is 6.31 µM [rising, single point].

Values taken from PubChem BioAssay AID445 (National Center for Advancing Translational Sciences (NCATS), 2006).
